This is one part of the list. Small differences around the control level are noise.

The chains behind the UniProt entries cited, without tags or fusion partners. Where a name states a change or a piece, a line headed by the entry shows the natural chain unless it says otherwise.
UniProt Q5XUX0: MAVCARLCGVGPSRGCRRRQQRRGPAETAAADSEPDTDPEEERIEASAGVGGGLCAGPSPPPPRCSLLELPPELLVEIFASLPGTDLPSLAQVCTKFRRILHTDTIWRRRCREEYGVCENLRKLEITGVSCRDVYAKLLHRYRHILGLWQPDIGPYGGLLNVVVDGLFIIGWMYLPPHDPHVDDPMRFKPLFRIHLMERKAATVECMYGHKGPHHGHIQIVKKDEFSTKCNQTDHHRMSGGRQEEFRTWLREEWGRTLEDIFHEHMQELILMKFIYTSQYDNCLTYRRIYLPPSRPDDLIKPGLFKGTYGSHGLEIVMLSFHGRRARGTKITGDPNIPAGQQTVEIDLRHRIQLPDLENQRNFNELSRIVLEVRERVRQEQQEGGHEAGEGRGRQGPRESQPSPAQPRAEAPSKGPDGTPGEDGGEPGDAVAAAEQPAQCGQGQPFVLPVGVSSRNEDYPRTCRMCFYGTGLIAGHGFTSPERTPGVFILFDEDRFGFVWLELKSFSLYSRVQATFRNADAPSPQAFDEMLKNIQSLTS
UniProt Q6P996: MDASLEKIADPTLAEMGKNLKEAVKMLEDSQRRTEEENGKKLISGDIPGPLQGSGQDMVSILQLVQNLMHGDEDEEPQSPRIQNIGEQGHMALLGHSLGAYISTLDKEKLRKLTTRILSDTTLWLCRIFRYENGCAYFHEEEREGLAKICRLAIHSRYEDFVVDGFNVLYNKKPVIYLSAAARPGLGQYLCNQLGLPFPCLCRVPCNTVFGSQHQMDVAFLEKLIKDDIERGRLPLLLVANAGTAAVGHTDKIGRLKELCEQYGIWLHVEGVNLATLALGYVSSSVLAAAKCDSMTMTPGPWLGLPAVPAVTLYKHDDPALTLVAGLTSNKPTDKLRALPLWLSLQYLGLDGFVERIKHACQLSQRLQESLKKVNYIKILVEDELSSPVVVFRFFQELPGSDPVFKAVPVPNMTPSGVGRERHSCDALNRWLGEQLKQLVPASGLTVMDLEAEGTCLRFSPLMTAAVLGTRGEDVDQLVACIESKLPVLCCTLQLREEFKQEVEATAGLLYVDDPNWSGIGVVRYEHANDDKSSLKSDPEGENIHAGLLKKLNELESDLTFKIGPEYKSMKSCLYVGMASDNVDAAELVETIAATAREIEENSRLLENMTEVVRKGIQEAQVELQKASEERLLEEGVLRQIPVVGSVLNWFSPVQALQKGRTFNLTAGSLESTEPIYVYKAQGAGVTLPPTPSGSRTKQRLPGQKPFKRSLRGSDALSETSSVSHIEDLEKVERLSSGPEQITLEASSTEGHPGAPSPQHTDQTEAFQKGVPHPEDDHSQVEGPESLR
UniProt Q6NS38: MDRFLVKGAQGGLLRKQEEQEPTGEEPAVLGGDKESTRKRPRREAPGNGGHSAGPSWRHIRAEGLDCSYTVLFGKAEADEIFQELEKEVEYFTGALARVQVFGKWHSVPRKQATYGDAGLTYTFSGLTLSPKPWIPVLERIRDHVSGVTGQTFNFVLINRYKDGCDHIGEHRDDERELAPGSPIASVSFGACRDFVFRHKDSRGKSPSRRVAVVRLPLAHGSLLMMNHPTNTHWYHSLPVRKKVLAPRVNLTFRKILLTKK
UniProt Q6NT76: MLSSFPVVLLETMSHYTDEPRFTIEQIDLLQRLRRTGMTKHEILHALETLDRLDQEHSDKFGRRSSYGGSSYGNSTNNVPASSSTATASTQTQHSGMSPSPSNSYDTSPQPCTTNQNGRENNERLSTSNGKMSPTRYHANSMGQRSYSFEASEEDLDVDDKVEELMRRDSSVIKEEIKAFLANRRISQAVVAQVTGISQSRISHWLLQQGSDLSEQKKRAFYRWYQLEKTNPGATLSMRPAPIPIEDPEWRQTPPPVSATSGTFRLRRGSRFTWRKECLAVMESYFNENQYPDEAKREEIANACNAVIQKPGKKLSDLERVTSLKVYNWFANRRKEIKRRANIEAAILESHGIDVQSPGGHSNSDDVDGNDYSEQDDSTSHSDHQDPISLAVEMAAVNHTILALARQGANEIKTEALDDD
UniProt Q5VUA4: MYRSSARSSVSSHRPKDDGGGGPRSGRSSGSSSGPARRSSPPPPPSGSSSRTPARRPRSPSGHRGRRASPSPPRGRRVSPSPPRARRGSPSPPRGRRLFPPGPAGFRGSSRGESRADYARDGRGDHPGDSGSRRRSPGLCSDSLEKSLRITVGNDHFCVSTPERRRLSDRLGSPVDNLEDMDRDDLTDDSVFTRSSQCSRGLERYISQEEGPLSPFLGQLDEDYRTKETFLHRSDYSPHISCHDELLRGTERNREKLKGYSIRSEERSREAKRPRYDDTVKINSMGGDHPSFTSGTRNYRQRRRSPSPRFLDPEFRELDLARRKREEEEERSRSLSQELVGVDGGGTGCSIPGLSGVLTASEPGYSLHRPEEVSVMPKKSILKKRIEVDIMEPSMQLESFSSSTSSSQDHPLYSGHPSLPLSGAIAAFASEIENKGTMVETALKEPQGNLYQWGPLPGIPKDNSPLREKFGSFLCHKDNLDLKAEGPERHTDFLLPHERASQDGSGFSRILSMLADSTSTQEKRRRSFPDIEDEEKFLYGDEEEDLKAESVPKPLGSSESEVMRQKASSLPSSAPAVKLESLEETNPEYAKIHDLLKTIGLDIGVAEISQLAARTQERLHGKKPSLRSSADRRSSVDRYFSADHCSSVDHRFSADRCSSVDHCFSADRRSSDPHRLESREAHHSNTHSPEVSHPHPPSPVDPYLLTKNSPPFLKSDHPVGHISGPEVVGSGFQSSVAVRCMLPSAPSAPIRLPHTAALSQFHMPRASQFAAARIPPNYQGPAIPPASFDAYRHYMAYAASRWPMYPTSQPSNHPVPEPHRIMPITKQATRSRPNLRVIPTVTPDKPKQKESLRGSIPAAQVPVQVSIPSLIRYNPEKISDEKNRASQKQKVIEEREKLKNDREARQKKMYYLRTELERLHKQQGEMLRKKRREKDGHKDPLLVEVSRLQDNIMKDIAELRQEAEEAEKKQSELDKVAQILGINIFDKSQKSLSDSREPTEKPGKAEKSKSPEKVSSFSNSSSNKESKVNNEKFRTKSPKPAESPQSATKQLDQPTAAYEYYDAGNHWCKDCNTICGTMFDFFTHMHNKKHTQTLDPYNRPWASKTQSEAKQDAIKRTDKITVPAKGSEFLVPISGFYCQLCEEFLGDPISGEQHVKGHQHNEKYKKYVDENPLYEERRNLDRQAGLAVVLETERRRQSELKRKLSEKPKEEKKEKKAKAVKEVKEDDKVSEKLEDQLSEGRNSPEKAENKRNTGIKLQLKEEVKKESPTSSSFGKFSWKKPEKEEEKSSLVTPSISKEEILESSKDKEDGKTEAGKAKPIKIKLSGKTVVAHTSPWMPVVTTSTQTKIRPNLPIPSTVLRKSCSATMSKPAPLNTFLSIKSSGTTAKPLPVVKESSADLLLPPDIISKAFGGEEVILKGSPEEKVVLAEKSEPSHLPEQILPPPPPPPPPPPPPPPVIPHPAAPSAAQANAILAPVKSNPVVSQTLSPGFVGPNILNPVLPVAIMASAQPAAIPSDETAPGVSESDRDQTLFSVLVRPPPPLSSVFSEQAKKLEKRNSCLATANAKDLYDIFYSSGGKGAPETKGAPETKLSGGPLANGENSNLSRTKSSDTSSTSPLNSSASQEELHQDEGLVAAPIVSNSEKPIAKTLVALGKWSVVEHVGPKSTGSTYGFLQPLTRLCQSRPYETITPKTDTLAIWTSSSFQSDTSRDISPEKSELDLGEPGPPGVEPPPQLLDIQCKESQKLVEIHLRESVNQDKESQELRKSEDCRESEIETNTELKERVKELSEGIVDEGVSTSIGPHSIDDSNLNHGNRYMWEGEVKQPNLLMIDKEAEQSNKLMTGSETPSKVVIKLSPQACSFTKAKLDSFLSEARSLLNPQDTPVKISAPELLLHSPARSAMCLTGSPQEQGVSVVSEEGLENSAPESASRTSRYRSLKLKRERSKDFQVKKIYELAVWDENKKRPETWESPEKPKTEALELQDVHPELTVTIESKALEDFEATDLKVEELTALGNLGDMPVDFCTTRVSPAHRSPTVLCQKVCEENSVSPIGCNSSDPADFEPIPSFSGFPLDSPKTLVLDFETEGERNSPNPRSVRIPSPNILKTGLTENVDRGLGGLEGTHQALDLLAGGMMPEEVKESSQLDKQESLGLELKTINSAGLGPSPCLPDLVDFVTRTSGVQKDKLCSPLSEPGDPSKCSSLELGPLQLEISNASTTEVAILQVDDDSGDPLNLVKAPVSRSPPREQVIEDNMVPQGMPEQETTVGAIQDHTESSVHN
UniProt Q6NUJ5: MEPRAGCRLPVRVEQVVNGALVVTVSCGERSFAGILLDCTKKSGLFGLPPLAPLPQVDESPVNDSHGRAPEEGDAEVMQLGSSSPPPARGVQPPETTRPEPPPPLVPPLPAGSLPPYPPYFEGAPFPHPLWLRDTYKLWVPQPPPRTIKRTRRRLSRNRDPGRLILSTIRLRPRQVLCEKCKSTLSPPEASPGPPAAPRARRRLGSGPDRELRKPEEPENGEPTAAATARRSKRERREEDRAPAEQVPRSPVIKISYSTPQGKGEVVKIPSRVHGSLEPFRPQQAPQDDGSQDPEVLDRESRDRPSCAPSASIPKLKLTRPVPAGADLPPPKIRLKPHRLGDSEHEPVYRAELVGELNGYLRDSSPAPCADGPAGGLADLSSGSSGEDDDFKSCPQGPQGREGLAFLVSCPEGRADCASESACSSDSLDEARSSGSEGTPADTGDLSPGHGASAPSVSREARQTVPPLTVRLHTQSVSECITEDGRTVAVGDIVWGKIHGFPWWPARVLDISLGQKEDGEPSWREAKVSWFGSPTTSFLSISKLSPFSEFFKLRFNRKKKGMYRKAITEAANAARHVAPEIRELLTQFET
UniProt Q6PKH6: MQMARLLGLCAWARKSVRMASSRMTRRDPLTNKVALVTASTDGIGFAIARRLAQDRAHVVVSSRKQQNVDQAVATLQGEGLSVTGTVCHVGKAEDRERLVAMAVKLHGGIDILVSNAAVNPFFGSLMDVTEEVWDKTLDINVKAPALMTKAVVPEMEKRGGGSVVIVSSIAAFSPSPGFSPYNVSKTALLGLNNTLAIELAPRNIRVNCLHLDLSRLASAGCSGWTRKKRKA
UniProt Q66K64, whole entry: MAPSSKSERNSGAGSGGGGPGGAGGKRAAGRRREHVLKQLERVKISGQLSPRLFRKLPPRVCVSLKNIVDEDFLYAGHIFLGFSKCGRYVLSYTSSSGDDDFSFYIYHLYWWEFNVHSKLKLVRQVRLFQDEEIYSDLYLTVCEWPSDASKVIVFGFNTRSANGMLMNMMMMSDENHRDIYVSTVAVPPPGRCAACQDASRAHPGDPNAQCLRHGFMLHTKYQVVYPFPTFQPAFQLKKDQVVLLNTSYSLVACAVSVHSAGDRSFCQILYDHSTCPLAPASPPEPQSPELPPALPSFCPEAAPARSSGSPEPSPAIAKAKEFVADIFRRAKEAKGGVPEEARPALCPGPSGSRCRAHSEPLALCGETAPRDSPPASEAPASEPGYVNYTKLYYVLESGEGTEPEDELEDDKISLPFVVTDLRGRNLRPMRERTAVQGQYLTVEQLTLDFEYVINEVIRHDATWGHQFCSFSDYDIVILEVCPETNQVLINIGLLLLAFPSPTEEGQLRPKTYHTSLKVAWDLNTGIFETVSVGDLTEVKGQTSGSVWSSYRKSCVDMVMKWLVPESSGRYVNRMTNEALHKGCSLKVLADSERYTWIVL
UniProt Q6PJG6: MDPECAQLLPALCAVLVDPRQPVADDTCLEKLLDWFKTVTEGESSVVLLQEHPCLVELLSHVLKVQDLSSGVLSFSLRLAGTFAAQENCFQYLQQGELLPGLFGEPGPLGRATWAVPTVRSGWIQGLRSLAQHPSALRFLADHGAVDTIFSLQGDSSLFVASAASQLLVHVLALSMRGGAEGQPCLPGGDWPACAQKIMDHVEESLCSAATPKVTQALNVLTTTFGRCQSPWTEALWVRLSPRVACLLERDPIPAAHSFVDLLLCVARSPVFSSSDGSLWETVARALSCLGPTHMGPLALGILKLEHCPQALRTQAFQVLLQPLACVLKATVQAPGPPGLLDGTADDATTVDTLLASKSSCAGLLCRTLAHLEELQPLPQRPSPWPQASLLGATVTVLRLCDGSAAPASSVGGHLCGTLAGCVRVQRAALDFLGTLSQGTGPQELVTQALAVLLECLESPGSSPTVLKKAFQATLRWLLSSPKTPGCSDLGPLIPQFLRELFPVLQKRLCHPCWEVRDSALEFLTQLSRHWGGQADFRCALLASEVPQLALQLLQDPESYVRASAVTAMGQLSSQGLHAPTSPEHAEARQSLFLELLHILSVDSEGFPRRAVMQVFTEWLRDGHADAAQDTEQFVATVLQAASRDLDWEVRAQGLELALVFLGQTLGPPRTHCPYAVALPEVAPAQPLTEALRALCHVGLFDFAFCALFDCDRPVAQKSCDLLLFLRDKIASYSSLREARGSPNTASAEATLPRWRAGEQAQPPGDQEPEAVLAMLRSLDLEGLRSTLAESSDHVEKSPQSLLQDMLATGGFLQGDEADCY

Compound in this test: Cc1nc(Nc2ncc(C(=O)Nc3c(C)cccc3Cl)s2)cc(N2CCN(CCO)CC2)n1 [dasatinib]
Put plainly: log2 fold change of tryptic peptide abundance, ligand vs vehicle (limited proteolysis) (log2 ratio); higher = more trypsin-susceptible (destabilized). The note with it: ligand concentration: 5 uM; sample: K562 cleared lysate.
For the target “MSANTD2 (peptide sequence: LREYFNSEK, peptide start residue: 345) (UniProt Q6P1R3)”, the log2 fold change is 0.38.

Turning to “FBXW9 (peptide sequence: QLGTESNQVLIK, peptide start residue: 204) (UniProt Q5XUX1)”, the log2 fold change was -0.568.

Regarding “UniProt Q5XUX0 (peptide sequence: CREEYGVCENLR, peptide start residue: 111)”, the log2 fold change is -0.455.

Consider “PDXDC1 (peptide sequence: GSDALSETSSVSHIEDLEK, peptide start residue: 713) (UniProt Q6P996)”, for which the log2 fold change stood at 0.247.

For “DHX57 (peptide sequence: FVAASHQVAELVK, peptide start residue: 1333) (UniProt Q6P158)”, the log2 fold change is -0.333.

As for “SMARCD3 (peptide sequence: MADKILPQR, peptide start residue: 128) (UniProt Q6STE5)”, the log2 fold change stood at 0.857.

Take “UniProt Q6NW29 (peptide sequence: SIYEGDESFR, peptide start residue: 16)”: the log2 fold change is -0.108.

In the case of “UniProt Q6S8J7 (peptide sequence: ANLNALDR, peptide start residue: 259)”, the log2 fold change was -0.125.

Turning to “ALKBH2 (peptide sequence: YKDGCDHIGEHR, peptide start residue: 161) (UniProt Q6NS38)”, the log2 fold change is -0.473.

With “HMBOX1 (peptide sequence: DSSVIKEEIK, peptide start residue: 169) (UniProt Q6NT76)”, the log2 fold change was 0.26.

In the case of “UniProt Q6P444 (peptide sequence: QNSHWDPVSLISHALK, peptide start residue: 303)”, the log2 fold change is -0.607.

With “C16orf87 (peptide sequence: AFVFSVALAEINRK, peptide start residue: 133) (UniProt Q6PH81)”, the log2 fold change turned out to be 0.0929.

As for “UniProt Q641Q2 (peptide sequence: KQTLCLQAQREEK, peptide start residue: 590)”, the log2 fold change was -0.192.

Take “ZNF318 (peptide sequence: KIYELAVWDENKK, peptide start residue: 1952) (UniProt Q5VUA4)”: the log2 fold change was -0.218.

For “UniProt Q6N069 (peptide sequence: LYDNPLTNESK, peptide start residue: 568)”, the log2 fold change was determined as 0.386.

Take “PMF1 (peptide sequence: ELVAVLREPE, peptide start residue: 196) (UniProt Q6P1K2)”: the log2 fold change came out at 0.0646.

For the target “ARL6IP4 (peptide sequence: EKAEAQQVEALPGPSLDQWHR, peptide start residue: 127) (UniProt Q66PJ3)”, the log2 fold change was 0.0935.

In the case of “CDKAL1 (peptide sequence: MEQVPAQVKK, peptide start residue: 405) (UniProt Q5VV42)”, the log2 fold change is 0.323.

In the case of “PWWP2B (peptide sequence: LGDSEHEPVYR, peptide start residue: 340) (UniProt Q6NUJ5)”, the log2 fold change was -0.309.

With “UniProt Q6ICB0 (peptide sequence: RLSPIMLGK, peptide start residue: 23)”, the log2 fold change was found to be 0.0533.

As to “UniProt Q5VW32 (peptide sequence: ADHTLSSLEPAYSAK, peptide start residue: 223)”, the log2 fold change is -0.199.

As to “INTS5 (peptide sequence: HTAAVPGPGGIWSVFHAGVIGR, peptide start residue: 735) (UniProt Q6P9B9)”, the log2 fold change was 0.935.

In the case of “UniProt Q5VWI1 (peptide sequence: GVSAFSTWEKELHK, peptide start residue: 674)”, the log2 fold change was 0.19.

As to “PRPF40B (peptide sequence: FYVEELK, peptide start residue: 546) (UniProt Q6NWY9)”, the log2 fold change was -0.315.

As for “UniProt Q6PKH6 (peptide sequence: AVVPEMEK, peptide start residue: 151)”, the log2 fold change came out at 0.25.

For “DCAF15 (peptide sequence: NSGAGSGGGGPGGAGGK, peptide start residue: 10) (UniProt Q66K64)”, the log2 fold change was -0.304.

With “C8orf82 (peptide sequence: TREYFYYVDHQGQLFLDDSK, peptide start residue: 40) (UniProt Q6P1X6)”, the log2 fold change turned out to be 0.19.

With “UniProt Q6PJG6 (peptide sequence: SCDLLLFLRDK, peptide start residue: 719)”, the log2 fold change is -0.421.

As to “UniProt Q5VZR4 (peptide sequence: AASEPEAGAMPEKR, peptide start residue: 13)”, the log2 fold change was determined as 0.0661.
